Data source: PubChem BioAssay AID1224830 (NIAID, 2016)
Purpose: 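Host factors that control LPS-induced TNF expression in human macrophages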 (primary screen). Cell system: human THP-1 monocytic leukaemia cells, TNF dual-luciferase reporter clone, PMA-differentiated to macrophage-like cells. Reagent: siRNA pool against human genes, 50 nM. Time to read-out: LPS for 4 h, given about 3 days after siRNA transfection. Treatment: bacterial LPS (TLR4 ligand), 10 ng/ml. Measured: 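Ratio of firefly to renilla light, scaled to the plate median and expressed as a robust z-score per replicate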. Scale: TNF reporter robust z-score: higher = stronger TNF reporter response to LPS. Active means: 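Each well counts as active if its z-score is over 2.8 or under -1.5; controls are left without a call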.
Shown is an unselected part of about 18,000 deposited reagents. About 2,900 of them (16%) count as active. 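Calls are made per well; low scores hint the gene aids the LPS response, high scores that it dampens it.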 Repeated entries: four replicate wells of each siRNA pool.

What did the screen give for SLC16A7 (GeneID 9194)?
TNF reporter robust z-score: 0.8; outcome: inactive

With SLC16A7 (GeneID 9194), how do the results read?
TNF reporter robust z-score: 1.53; outcome: inactive

For SLC16A7 (GeneID 9194), what does the deposit list?
TNF reporter robust z-score: 0.88; outcome: inactive

With SLC16A7 (GeneID 9194), how do the results read?
TNF reporter robust z-score: 1.11; outcome: inactive

For TEX47 (GeneID 219557), what was measured?
TNF reporter robust z-score: 1.71; outcome: inactive

For TEX47 (GeneID 219557), what was measured?
TNF reporter robust z-score: 0.68; outcome: inactive

What did the screen give for TEX47 (GeneID 219557)?
TNF reporter robust z-score: 0.02; outcome: inactive

For TEX47 (GeneID 219557), what does the deposit list?
TNF reporter robust z-score: 0.74; outcome: inactive

With OXLD1 (GeneID 339229), what was measured?
TNF reporter robust z-score: -0.59; outcome: inactive

With OXLD1 (GeneID 339229), what was measured?
TNF reporter robust z-score: 0.35; outcome: inactive

For OXLD1 (GeneID 339229), how do the results read?
TNF reporter robust z-score: 0.68; outcome: inactive

For OXLD1 (GeneID 339229), what does the deposit list?
TNF reporter robust z-score: 0.3; outcome: inactive

What is on record for ZNF280B (GeneID 140883)?
TNF reporter robust z-score: -0.97; outcome: inactive

For ZNF280B (GeneID 140883), what was measured?
TNF reporter robust z-score: -0.55; outcome: inactive

With ZNF280B (GeneID 140883), what was measured?
TNF reporter robust z-score: -0.4; outcome: inactive

For ZNF280B (GeneID 140883), what was measured?
TNF reporter robust z-score: -0.76; outcome: inactive

What did the screen give for SLC13A2 (GeneID 9058)?
TNF reporter robust z-score: -1.17; outcome: inactive

What did the screen give for SLC13A2 (GeneID 9058)?
TNF reporter robust z-score: -0.88; outcome: inactive

For SLC13A2 (GeneID 9058), how do the results read?
TNF reporter robust z-score: -1.64; outcome: active

What did the screen give for SLC13A2 (GeneID 9058)?
TNF reporter robust z-score: -1.42; outcome: inactive

How did the screen score TOX2 (GeneID 84969)?
TNF reporter robust z-score: 2.86; outcome: active

What is on record for TOX2 (GeneID 84969)?
TNF reporter robust z-score: 0.32; outcome: inactive

For TOX2 (GeneID 84969), how do the results read?
TNF reporter robust z-score: -0.44; outcome: inactive

For TOX2 (GeneID 84969), what was measured?
TNF reporter robust z-score: -0.06; outcome: inactive

With TOPBP1 (GeneID 11073), how do the results read?
TNF reporter robust z-score: -1; outcome: inactive

With TOPBP1 (GeneID 11073), how do the results read?
TNF reporter robust z-score: -0.26; outcome: inactive

What is on record for TOPBP1 (GeneID 11073)?
TNF reporter robust z-score: -0.02; outcome: inactive

Which result is listed for TOPBP1 (GeneID 11073)?
TNF reporter robust z-score: -0.71; outcome: inactive

Which result is listed for ANKS1A (GeneID 23294)?
TNF reporter robust z-score: 0.94; outcome: inactive

How did the screen score ANKS1A (GeneID 23294)?
TNF reporter robust z-score: -0.65; outcome: inactive

What did the screen give for ANKS1A (GeneID 23294)?
TNF reporter robust z-score: -0.94; outcome: inactive

With ANKS1A (GeneID 23294), what does the deposit list?
TNF reporter robust z-score: -1.28; outcome: inactive

Sorted by “TNF reporter robust z-score” (lowest first): 5 of the entries above.
TOPBP1 (GeneID 11073) | TNF reporter robust z-score: -1; outcome: inactive
TOX2 (GeneID 84969) | TNF reporter robust z-score: -0.44; outcome: inactive
TOPBP1 (GeneID 11073) | TNF reporter robust z-score: -0.26; outcome: inactive
TOX2 (GeneID 84969) | TNF reporter robust z-score: -0.06; outcome: inactive
TOPBP1 (GeneID 11073) | TNF reporter robust z-score: -0.02; outcome: inactive
